This experiment deals with T1, EGFP-BBS9 (human) (UniProt Q3SYG4).
T1 sequence: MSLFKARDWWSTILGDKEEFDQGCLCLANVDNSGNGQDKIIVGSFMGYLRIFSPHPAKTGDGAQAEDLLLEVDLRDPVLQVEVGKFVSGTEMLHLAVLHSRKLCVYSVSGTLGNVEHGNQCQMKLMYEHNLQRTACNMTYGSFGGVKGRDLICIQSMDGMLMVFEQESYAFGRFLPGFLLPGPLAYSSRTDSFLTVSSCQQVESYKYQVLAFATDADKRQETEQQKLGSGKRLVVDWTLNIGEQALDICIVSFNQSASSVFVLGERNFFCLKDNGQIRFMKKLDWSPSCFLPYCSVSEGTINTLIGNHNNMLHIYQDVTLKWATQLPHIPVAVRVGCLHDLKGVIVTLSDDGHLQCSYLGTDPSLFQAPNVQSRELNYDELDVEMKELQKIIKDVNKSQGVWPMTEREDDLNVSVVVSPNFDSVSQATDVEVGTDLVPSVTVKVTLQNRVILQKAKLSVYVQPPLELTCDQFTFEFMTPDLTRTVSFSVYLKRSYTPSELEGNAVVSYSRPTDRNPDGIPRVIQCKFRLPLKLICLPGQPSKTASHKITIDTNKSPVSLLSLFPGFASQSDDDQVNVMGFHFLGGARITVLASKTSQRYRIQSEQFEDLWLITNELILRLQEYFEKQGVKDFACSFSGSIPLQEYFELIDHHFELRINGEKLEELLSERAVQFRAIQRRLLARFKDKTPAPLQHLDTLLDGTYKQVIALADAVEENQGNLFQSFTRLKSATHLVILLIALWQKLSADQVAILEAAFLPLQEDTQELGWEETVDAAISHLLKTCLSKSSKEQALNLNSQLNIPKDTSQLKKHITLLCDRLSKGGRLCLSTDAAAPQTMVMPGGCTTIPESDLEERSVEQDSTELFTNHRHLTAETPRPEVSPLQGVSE
Nature of the experiment: co-IP; VIP assay: lysates of HEK293T cells co-expressing an EGFP-fused and an mChe- or tRFP-fused protein (HMDEKN buffer: 10 mM HEPES pH 7.4, 5 mM MgSO4, 1 mM DTT, 0.5 mM EDTA, 25 mM KCl, 0.5% NP-40); EGFP fusion precipitated with GST-anti-GFP nanobody on glutathione-Sepharose beads; beads read by fluorescence microscopy and, for some pairs, by immunoblotting.

Amino acid sequences for entries named in this document (tags omitted). A change or cut given only in a name is not applied to a line headed by its entry.
UniProt Q8NFJ9: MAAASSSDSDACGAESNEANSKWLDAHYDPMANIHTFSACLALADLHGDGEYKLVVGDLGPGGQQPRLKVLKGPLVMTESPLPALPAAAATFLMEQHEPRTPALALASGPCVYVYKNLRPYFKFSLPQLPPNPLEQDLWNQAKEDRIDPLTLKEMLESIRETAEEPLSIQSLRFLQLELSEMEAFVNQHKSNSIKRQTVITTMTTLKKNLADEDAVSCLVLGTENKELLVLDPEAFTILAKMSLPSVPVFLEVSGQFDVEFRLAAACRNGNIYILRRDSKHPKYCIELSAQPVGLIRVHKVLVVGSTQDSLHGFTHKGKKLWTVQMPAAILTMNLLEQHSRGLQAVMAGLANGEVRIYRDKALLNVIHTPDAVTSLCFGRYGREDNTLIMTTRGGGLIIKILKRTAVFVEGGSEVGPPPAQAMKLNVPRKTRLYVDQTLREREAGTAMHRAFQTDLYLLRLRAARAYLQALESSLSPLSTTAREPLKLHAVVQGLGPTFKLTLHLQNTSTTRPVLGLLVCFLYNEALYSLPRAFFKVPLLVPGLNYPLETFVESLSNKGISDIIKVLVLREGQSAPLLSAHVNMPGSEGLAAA

No constants are given. Whether binding was seen depends on the method and setting. In cells and extracts the contact can be indirect. Binding can be weak; no strength is given. Sequences can lack the tags named with a protein.

On to “mChe-fused BBS1(∆α) (from UniProt Q8NFJ9)”, for which the binding entry is recorded as “binds”.

Source of the values: publication PMC5874067.
